# Experimental data published in patent US9170264B2, “Methods of monitoring for adherence to aripiprazole therapy” (Ameritox, Ltd., priority 2013, dated 2015).
# Experiments:
# Assay type in all cases: in vivo, human
# [1] = Urine testing for compliance over 5 days, patients prescribed 15 mg/day Abilify (Example 5); settings: 15 mg Abilify; 69 opportunities
# Protocol: (§1) The concentration of any analyte described in the present disclosure may be determined (e.g., measured) by any suitable quantification method. In some embodiments, the concentration of an analyte (e.g., aripiprazole, dehydroaripiprazole, and/or OPC3373) is measured by tandem liquid chromatography-mass spectrometry-mass spectrometry (“LC/MSMS”). In some embodiments, the concentration of an analyte (e.g., aripiprazole, dehydroaripiprazole, and/or OPC3373) is measured by tandem liquid chromatography-High Resolution mass spectrometry (Time of Flight (TOF)) (“LC/MS(TOF)”). In some embodiments, the concentration of an analyte (e.g., aripiprazole, dehydroaripiprazole, and/or OPC3373) is measured by direct injection mass spectrometry-mass spectrometry ([…]) e.g., such systems as RapidFire™ (Agilent) or Laser Diode Thermal Desorption (“LDTD”) (Phytronix) to introduce samples into the mass spectrometer; either triple quadrupole (i.e., MSMS) or exact mass (i.e., Time of Flight, Orbitrap, etc.) instruments
# The urine of 23 patients who were prescribed 15 mg of Abilify® (aripiprazole) was tested for compliance over 5 days (Table 7). […] Without OPC3373, only 78% were determined to be positive with patients just being below the reporting cutoffs for both aripiprazole and dehydroaripiprazole. […] Thus, use of OPC3373 as a urine biomarker at this dose adds value to compliance monitoring for Abilify®.
# [2] = Urine testing for compliance over 5 days, patients prescribed 10 mg/day Abilify (Example 6); settings: 10 mg Abilify; 111 opportunities
# Protocol: as §1
# The urine of 37 patients who were prescribed 10 mg of Abilify® (aripiprazole) was tested for compliance over 5 days (Table 9). […] Without OPC3373, only 61% were determined to be positive with patients just being below the reporting cutoffs for both aripiprazole and dehydroaripiprazole. Thus, use of OPC3373 as a urine biomarker at this dose adds value to compliance monitoring for Abilify®.
# [3] = Urine testing for compliance over 5 days, patients prescribed 30 mg/day Abilify (Example 3); settings: 30 mg Abilify; 15 opportunities
# Protocol: as §1
# The urine of 5 patients who were prescribed 30 mg of Abilify® (aripiprazole) was tested for compliance over 5 days (Table 3). […] Without OPC3373, only 93% were determined to be positive with one patient either having stopped taking their medicine between day 4 and 5 or just being below the reporting cutoffs for both aripiprazole and dehydroaripiprazole. Thus, use of OPC3373 as a urine biomarker even at this relatively high dose adds value to compliance monitoring for Abilify®.
# [4] = Urine testing for compliance over 5 days, patients prescribed 2 mg/day Abilify (Example 8); settings: for % Positive (urine): 2 mg/day Abilify
# Protocol: as §1
# The urine of 15 patients who were prescribed 2 mg of Abilify® (aripiprazole) was tested for compliance over 5 days (Table 14). […] Without OPC3373, only 24% were determined to be positive with patients just being below the reporting cutoffs for both aripiprazole and dehydroaripiprazole. Thus, use of OPC3373 as a urine biomarker at this lower dose makes compliance monitoring for Abilify® possible. […] However, OPC3373 in subject M confirmed the subject's adherence to aripirazole therapy despite the low observed creatinine level.
# [5] = Urine testing for compliance over 5 days, patients prescribed 20 mg/day Abilify (Example 4); settings: 20 mg Abilify; 66 opportunities
# Protocol: as §1
# The urine of 22 patients who were prescribed 20 mg of Ability (e.g., aripiprazole) was tested for compliance over 5 days (Table 5). […] Without OPC3373, only 85% were determined to be positive with patients just being below the reporting cutoffs for both aripiprazole and dehydroaripiprazole. Thus, use of OPC3373 as a urine biomarker even at this relatively high dose adds value to compliance monitoring for Abilify®.
# [6] = Levels of OPC3373, aripiprazole and dehydroaripiprazole in urine of humans taking chronic doses of aripiprazole (Example 1); settings: 22 specimens
# Protocol: as §1
# The appearance of OPC3373 (4-[(2-Oxo-1,2,3,4-tetrahydro-7-quinolinyl)oxy]butanoic acid, BMS-337047) as the major aripiprazole metabolite in the urine can be used to help monitor patient adherence to aripiprazole therapy. […]
Compound,determined to be positive without OPC3373 (aripiprazole and dehydroaripiprazole only) [1],determined to be positive without OPC3373 (aripiprazole and dehydroaripiprazole only) [2],determined to be positive without OPC3373 (aripiprazole and dehydroaripiprazole only) [3],"determined to be positive without OPC3373 (aripiprazole and dehydroaripiprazole only) ([4]; 2 mg Abilify, 45 opportunities)",% Positive (urine) ([4]; Day 1),% Positive (urine) ([4]; Day 4),% Positive (urine) ([4]; Day 5),determined to be positive without OPC3373 (aripiprazole and dehydroaripiprazole only) [5],"correct identification of those taking the prescribed medicine, use of OPC3373 [1]","correct identification of those taking the prescribed medicine, use of OPC3373 [2]","correct identification of those taking the prescribed medicine, use of OPC3373 [3]","correct identification of those taking the prescribed medicine, use of OPC3373 ([4]; 2 mg Abilify, 45 opportunities)",% POS with OPC3373 only [6],% NEG at 100/5/5 ng/mL Cutoff ([6]; cutoffs OPC3373/dehydroaripiprazole/aripiprazole),"correct identification of those taking the prescribed medicine, use of OPC3373 [5]"
"O=c1ccc2ccc(OCCCCN3CCN(c4cccc(Cl)c4Cl)CC3)cc2[nH]1 [Dehydroaripiprazole, dehydroaripiprazole]",78%,61%,93%,24%,7%,0 (0%),0 (0%),85%,,,,,,,
"O=C(O)CCCOc1ccc2c(c1)NC(=O)CC2 [OPC3373, 4-[(2-Oxo-1,2,3,4-tetrahydro-7-quinolinyl)oxy]butanoic acid]",,,,,100%,100%,93%,,99%,99%,100%,87%,22.7%,27.2%,100%
O=C1CCc2ccc(OCCCCN3CCN(c4cccc(Cl)c4Cl)CC3)cc2N1 [Aripiprazole],78%,61%,93%,24%,53%,53%,47%,85%,,,,,,,
